The nature of the assay: qHTS Assay for Lipid Storage Modulators in Drosophila S3 Cells.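 For cell number change: cells counted by Cell Tracker Red CMTPX staining in the red channel.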 The conditions noted are these: BODIPY lipid droplet fluorescence, 18-24 h; for cell number change: measured here: cell count max response, cells fed with added oleic acid. A digest of the protocol:
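Drosophila S3 cells loaded with oleic acid (400 uM, as added) and compounds at several concentrations; lipid droplets imaged by 488-nm laser-scanning cytometry, 500–530 nm intensity and object ratio to cell channel. Percent activity normalized to 20 uM Triacsin C.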
A general note: Quantitative high-throughput screening tests each substance at several concentrations.

[1] abbreviates: measured here: lipid fluorescence (Fed channel) AC50, cells fed with added oleic acid.
Setting [2] is: measured here: cell number channel AC50, cells fed with added oleic acid.

Some of the results follow. Shown are side measurements of this screen, not its main read-out; they come without a call. Most of these compounds were active or inconclusive in the main read-out, so they are no random draw. Potencies come from curve fits of mixed quality, noted in brackets.

For the compound `O=C(c1cc(-c2ccc(Br)cc2)n[nH]1)N1CCN(C(=O)c2ccccc2Br)CC1`, the cell number change was -30%. Further, under setting [1], the AC50 was 1.46 µM [rising, partial curve].
With `CC(=O)Nc1ccc(C(=O)NNS(=O)(=O)c2ccc(C)cc2)cc1`, the cell number change is -39.2%. The AC50 under setting [2] is 0.259 µM [falling, full curve, poor fit]. For the same compound, the concentration at half-maximal activity (AC50) under setting [1] was 1.16 µM [falling, full curve].
`CCCOc1ccc(N2C(=O)CC(N3CCN(CCN=CC4=C(O)CC(C)(C)CC4=O)CC3)C2=O)cc1` (stereo not drawn): the cell number change is -50.5%. In addition, under setting [2], the AC50 was 29.1 µM [falling, single point]. Under setting [1], the concentration at half-maximal activity (AC50) is 29.1 µM [falling, single point].
As for `Cc1ccc([N+](=O)[O-])cc1NC(=O)Nc1ccc(S(N)(=O)=O)cc1`, the cell number change is 26.5%. Further, under setting [1], the AC50 was 0.184 µM [falling, full curve].
As for `Oc1ccccc1-c1csc(-c2ccccc2)n1`, the cell number change was -14.1%. Further, the AC50 under setting [1] is 2.59 µM [falling, partial curve, poor fit].
`C=CCOc1nc2c(c(=O)n(C)c(=O)n2C)n1Cc1ccccc1Cl`: the AC50 was 0.092 µM [rising, full curve, poor fit] under setting [2] and 0.13 µM [rising, full curve, poor fit] under setting [1].
In the case of `Cc1cc(C)cc(NC(=O)Nc2ccc(-n3ccc(C(F)(F)F)n3)cc2)c1`, the cell number change was -10.3%. Moreover, the concentration at half-maximal activity (AC50) under setting [2] is 0.461 µM [rising, single point]. Also, the half-maximal activity concentration (AC50) under setting [1] was 29.1 µM [falling, single point].
Consider `O=C(Nc1ccccc1)c1ccc2nc(-c3ccco3)c(-c3ccco3)nc2c1`, for which the AC50 under setting [1] was 6.51 µM [rising, single point].
For the compound `Cc1ccc2nc(Cl)c(C3CC(c4cccs4)=NN3C(=O)CCCC(=O)O)cc2c1` (stereo not drawn), the cell number change is -100%. The AC50 under setting [2] is 29.1 µM [falling, single point]. The half-maximal activity concentration (AC50) under setting [1] is 4.61 µM [falling, full curve].
In the case of `O=c1/c(=C\c2cc([N+](=O)[O-])cc([N+](=O)[O-])c2O)sc2nc3ccccc3n12`, the cell number change was -15%. The half-maximal activity concentration (AC50) under setting [1] is 32.6 µM [falling, single point].
In the case of `CC(=O)c1cn(CCOc2ccc(F)cc2)c2ccccc12`, the cell number change was -24.1%. Further, the AC50 under setting [1] is 29.1 µM [falling, single point].
With `CC(C)C[C@@H](CO)N1CCN(CCc2ccccc2)CCC1=O`, the cell number change is 24.6%.
For the compound `Cc1[nH]n(-c2nc(-c3ccc(Cl)cc3)cs2)c(=O)c1N=Nc1ccc(O)cc1`, the cell number change is -37.9%. The AC50 under setting [2] is 4.11 µM [falling, full curve]. For the same compound, the concentration at half-maximal activity (AC50) under setting [1] was 20.6 µM [falling, partial curve].
As for `CCOC(=O)/C(C#N)=C\c1ccc(N2CCN(C/C=C/c3ccccc3)CC2)cc1`, the cell number change was -0.87%. The AC50 under setting [1] is 29.1 µM [falling, single point].
Consider `Cc1ccc(CCN2C(=O)c3ccc(C(=O)O)cc3C2=O)cc1`, for which the cell number change stood at 22.3%. Besides, the AC50 under setting [1] was 14.6 µM [rising, single point].
Consider `COc1ccc(OC)c(Nc2nc3ccc(C)cc3n3cnnc23)c1`, for which the cell number change is -24.3%. For the same compound, the AC50 under setting [1] was 9.2 µM [falling, single point].
Turning to `Cc1c(NS(=O)(=O)N2CCCCC2)c(=O)n(-c2ccccc2)n1C`, the cell number change was -5.11%. For the same compound, under setting [1], the AC50 is 4.11 µM [falling, single point].
`CC1CCCC(NC(=O)COC(=O)Cc2ccsc2)C1C` (stereo not drawn): the cell number change is -44%. Moreover, under setting [2], the AC50 is 2.91 µM [falling, full curve]. Further, under setting [1], the half-maximal activity concentration (AC50) was 7.31 µM [falling, partial curve].
As to `CCCCS(=O)(=O)N1CN(S(=O)(=O)CCCC)C2NC(=O)NC21` (stereo not drawn), the AC50 under setting [1] was 2.91 µM [falling, partial curve].
Turning to `CC1CC(C)CN(C(=S)Nc2ccc3nc4n(c(=O)c3c2)CCCCC4)C1` (stereo not drawn), the cell number change worked out at 17.2%. Moreover, the AC50 under setting [1] was 29.1 µM [rising, single point].
Regarding `O=C(CSc1nnc(NC(=O)c2ccc(F)cc2)s1)NC1CCCC1`, the cell number change came out at 23.3%.
Consider `Cc1ccc(CNC(=O)CN(Cc2cccs2)C(=O)C2(C)CC(=O)N=C3C=CC=CN32)cc1` (stereo not drawn), for which the cell number change is -56.7%. Further, under setting [2], the AC50 was 29.1 µM [falling, single point]. Under setting [1], the AC50 was 9.2 µM [falling, single point].
`COc1cccc(CNc2nc(-c3cccnc3)nc3ccccc23)c1`: the cell number change is -13.8%. The AC50 under setting [2] was 0.731 µM [rising, full curve, poor fit].
`Cc1ccc(C)c(NC(=O)CN2C(=O)CC(C)S(=O)(=O)c3ccccc32)c1` (stereo not drawn): the cell number change is -23.7%.
In the case of `O=C(NCc1ccco1)c1ccc(Cl)s1`, the cell number change is 6.73%. Also, the AC50 under setting [2] is 1.84 µM [rising, partial curve]. In addition, the AC50 under setting [1] is 2.06 µM [rising, partial curve].
For the compound `O=Cc1ccc(OCC(=O)NCC2CCCO2)cc1` (stereo not drawn), the cell number change was 22.4%. Further, the half-maximal activity concentration (AC50) under setting [1] is 1.58 µM [rising, full curve].
In the case of `COC(=O)c1[nH]c2cccc(Cl)c2c1NC(=O)CN1CCN(CCO)CC1`, the cell number change was determined as 1.52%. Moreover, under setting [2], the half-maximal activity concentration (AC50) is 0.103 µM [falling, full curve, poor fit]. Also, the AC50 under setting [1] is 0.0731 µM [falling, full curve, poor fit].
As for `O=C(NCc1ccc(Cl)cc1)c1cc2ccccn2n1`, under setting [1], the AC50 is 29.1 µM [rising, single point].
Regarding `O=C(CN1C(=O)c2cccc([N+](=O)[O-])c2C1=O)OCC(=O)N1CCCCC1`, the cell number change is -96.7%. Further, under setting [2], the half-maximal activity concentration (AC50) is 29.1 µM [falling, single point]. The AC50 under setting [1] is 29.1 µM [falling, single point].
For the compound `C=CCC1C=CCC(CC=C)N1C(=O)c1ccccc1[N+](=O)[O-]` (stereo not drawn), the cell number change worked out at 44.7%. Further, under setting [2], the concentration at half-maximal activity (AC50) was 6.51 µM [falling, single point].
As to `COc1cc(C=O)ccc1OCCCOc1ccccc1[N+](=O)[O-]`, the cell number change was -21.5%. Moreover, the half-maximal activity concentration (AC50) under setting [2] is 0.00517 µM [falling, full curve, poor fit]. Also, the concentration at half-maximal activity (AC50) under setting [1] is 25.9 µM [rising, partial curve].
Turning to `COC(=O)c1sccc1NC(=O)/C=C/c1c(Cl)cccc1Cl`, the cell number change is -8.13%. Also, the half-maximal activity concentration (AC50) under setting [1] is 4.11 µM [rising, single point].
Consider `COc1ccc(S(=O)(=O)N(CC(=O)Nc2ccccc2C(=O)N2CCOCC2)c2ccc(F)cc2)cc1`, for which the cell number change was -22.5%. The half-maximal activity concentration (AC50) under setting [1] is 0.092 µM [falling, full curve, poor fit].
Take `CCOC(=O)c1cnc(-n2nc(C)cc2C)nc1NCc1ccccc1`: the AC50 reads like this: under setting [2], 1.84 µM [rising, partial curve]; under setting [1], 1.46 µM [rising, partial curve].

One may read the AC50 as the concentration at which the activity in the assay is half-maximal. Read a high AC50 as activity only at high concentration.
